# Most of the hits are listed elsewhere, so they are rarer here than in the full data. Activity calls are given as the source filed them. Rule as the data show it: active = inhibition above about 28%; inactive = the rest.
# Target: Single-stranded DNA-binding protein (Escherichia coli (strain K12)) (UniProt P0AGE0)
# Assay: SSB-ssDNA binding inhibitors – biochemical, fluorescence polarization, NIH Clinical Collection, counter-screen for HCV NS3 helicase inhibitor project (AID 743271)
# Conditions: E. coli SSB-DNA binding, stronger effect = higher value, concentration not given here
row,Compound,inhibition
1,Cc1cccc(CCN2CCC(C(=O)c3ccc(NS(C)(=O)=O)cc3)CC2)n1,inactive: -0.39%
2,Cc1c(C(=O)NN2CCCCC2)nn(-c2ccc(Cl)cc2Cl)c1-c1ccc(I)cc1,inactive: 1.97%

# — PubChem BioAssay
